# Measurements reported in PubChem BioAssay AID720505 (Drosophila RNAi Screening Center, 2013)
# Assay: 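Knock-downs that reduce calcium influx once internal stores are emptied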 (primary screen)
# System: Drosophila S2R+ cells
# Knock-down reagent: long dsRNA against Drosophila genes
# Conditions: thapsigargin (2 µM) in calcium-free buffer to empty internal stores, then 2 mM calcium added back
# Measured: 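Stores emptied by 2 µM thapsigargin without calcium, then 2 mM calcium re-added; fluo-4 fluorescence followed by FLIPR in 384-well plates, per-well averaged endpoint, raw; two screen passes, some wells retested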
# Scale: calcium signal and retest calcium signal: higher = more calcium entry after store depletion
# Hit rule: 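About 1500 genes called as lowering calcium entry, by varying amounts, judged against per-plate control wells with STIM1 as positive and Rho1 as negative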
# Meaning of the calls: active = called as lowering calcium entry; inactive = not called
# The deposit covers about 20,000 reagents; below is a random part of those that have a named target and a result. Over the whole deposit, about 2,100 (10%) got an active call. 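Raw plate signals without normalisation; calls rest on control-based scores that were not deposited; replicate 2 separates called from uncalled poorly.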 Not stated in the record: the amount of reagent, the time to read-out.
Gene,PubChem SID,"calcium signal, replicate 1","calcium signal, replicate 2","retest calcium signal, replicate 1","retest calcium signal, replicate 2",Call
CG31523,SID104191801,,,,,inactive
CG31523,SID104192129,69.3,49.7,55,59.1,active
r (rudimentary),SID104199605,82.9,120,,,inactive
r (rudimentary),SID104199606,72.2,83.6,,,active
gry (gryzun),SID104188310,88.7,76.9,,,inactive
cav (caravaggio),SID104195787,203,206,,,inactive
CG13502,SID104183939,63.9,177,,,inactive
CG32187,SID104190313,114,126,,,inactive
CG33253,SID104199339,107,108,,,inactive
CG33253,SID104199845,170,86.6,138,98,inactive
CG17746,SID104188313,98.8,83.4,,,inactive
CG17746,SID104202690,96.6,137,,,inactive
Atg2 (Autophagy-related 2),SID104188065,69.1,146,,,active
CG31183,SID104194195,180,237,,,inactive
CG31183,SID104195346,95.7,175,,,inactive
fiz (fezzik),SID104199980,110,112,,,inactive
CG6695,SID104195890,210,243,,,inactive
Vajk1,SID104181674,117,127,,,inactive
CG16890,SID104181682,76.6,108,,,inactive
Fancd2,SID104195000,187,203,,,inactive
Fancd2,SID104202128,115,152,,,inactive
CG8501,SID104186990,245,178,,,inactive
Clic (Chloride intracellular channel),SID104199156,96,77.5,,,inactive
cora (coracle),SID104187389,118,110,,,inactive
CG18420,SID104181746,83.3,94.4,,,inactive
CG42553,SID104188148,101,68.4,,,inactive
ana2 (anastral spindle 2),SID104185744,149,132,,,inactive
Prx6a (Peroxiredoxin 6a),SID104180357,98.5,248,,,inactive
CG3651,SID104183522,172,147,,,inactive
Pdf (Pigment-dispersing factor),SID104196578,99.8,154,,,inactive
yellow-g2,SID104188130,60.7,75.3,,,active
CG3008,SID104180352,139,85.1,,,inactive
CG4382,SID104182535,183,198,,,inactive
Eig71Ef (Ecdysone-induced gene 71Ef),SID104190945,129,134,,,inactive
